Source: PubChem BioAssay AID1259308 (NCATS, 2017)

Assay: 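Genes whose loss raises luciferase production in HEK293 cells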 (primary screen)
Cell system: human HEK293 embryonic kidney cells stably expressing firefly luciferase (HEK-CMV-Luc2-Hygro)
Knock-down reagent: single siRNA against human genes, 0.8 pmol siRNA per well
Timing: 72 h
Read-out: 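Luciferase light (ONE-Glo) measured on one replicate plate set and viability (CellTiter-Glo) on the other, scaled to a negative control siRNA, with robust z-scores and luciferase per cell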
Scale: total luciferase, z-score and total luciferase, % of control: higher = more reporter protein produced
Call rule: 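An siRNA counts as active if its total luciferase robust z-score exceeds 3; genes with two or more such siRNAs out of three were retested with fresh siRNAs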
Calls: active = raised luciferase; inactive = no rise
This is an unselected part of about 59,000 reagents. About 1,510 of them (2.6%) were called active. 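Calls use total luciferase alone and ignore viability, so some active siRNAs may act by altering cell number.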 A number with no mark means an inactive call. Reagents against one gene are numbered here. Not all columns of the deposit are shown. Reagent sequences are not shown.

With knock-down of FITM1 #1, the screen gave total luciferase, z-score -2.07; total luciferase, % of control 40.8. For FITM1 #2, the entry reads total luciferase, z-score 1.15; total luciferase, % of control 105. FITM1 #3 gave total luciferase, z-score -0.783; total luciferase, % of control 66.3. RNF182 #1 scored total luciferase, z-score 0.882; total luciferase, % of control 99.4. For RNF182 #2, the values are total luciferase, z-score -0.26; total luciferase, % of control 76.7. After knock-down of RNF182 #3 the results were total luciferase, z-score -0.235; total luciferase, % of control 77.2.

CD2BP2 #1 gave total luciferase, z-score -0.49; total luciferase, % of control 72.1. After knock-down of CD2BP2 #2, the screen gave total luciferase, z-score -0.453; total luciferase, % of control 72.9. Knock-down of CD2BP2 #3 resulted in: total luciferase, z-score -0.0828; total luciferase, % of control 80.2. Against LRRK1 #1, the entry reads total luciferase, z-score 0.185; total luciferase, % of control 85.6. With knock-down of LRRK1 #2, the record shows total luciferase, z-score -0.596; total luciferase, % of control 70. After knock-down of LRRK1 #3 the results were total luciferase, z-score -0.448; total luciferase, % of control 73.

After knock-down of RPS18P12 #1 the results were total luciferase, z-score 0.387; total luciferase, % of control 89.6. With knock-down of RPS18P12 #2, the record shows total luciferase, z-score 0.0553; total luciferase, % of control 83. Against RPS18P12 #3, the entry reads total luciferase, z-score -0.359; total luciferase, % of control 74.7. Silencing of MAN2B1 #1 resulted in: total luciferase, z-score 1.61; total luciferase, % of control 114. Knock-down of MAN2B1 #2 gave: total luciferase, z-score -0.508; total luciferase, % of control 71.8. Depletion of MAN2B1 #3 gave: total luciferase, z-score 1.5; total luciferase, % of control 112.

Against MARK1 #1, the values are total luciferase, z-score -0.571; total luciferase, % of control 70.5. MARK1 #2 showed total luciferase, z-score 1.78; total luciferase, % of control 117. Depletion of MARK1 #3 came out at: total luciferase, z-score 0.0672; total luciferase, % of control 83.2. Depletion of PIK3R5 #1 gave: total luciferase, z-score 2.64; total luciferase, % of control 134. PIK3R5 #2 scored total luciferase, z-score -0.624; total luciferase, % of control 69.5. For PIK3R5 #3, the values are total luciferase, z-score -1.08; total luciferase, % of control 60.5.

Quoted from the listing, 6 entries:
LRRK1 #1 | total luciferase, z-score = 0.185; total luciferase, % of control = 85.6
LRRK1 #2 | total luciferase, z-score = -0.596; total luciferase, % of control = 70
LRRK1 #3 | total luciferase, z-score = -0.448; total luciferase, % of control = 73
RPS18P12 #1 | total luciferase, z-score = 0.387; total luciferase, % of control = 89.6
RPS18P12 #2 | total luciferase, z-score = 0.0553; total luciferase, % of control = 83
RPS18P12 #3 | total luciferase, z-score = -0.359; total luciferase, % of control = 74.7

The listing continues:
For ASZ1 #1, the values are total luciferase, z-score 1.97; total luciferase, % of control 121. Depletion of ASZ1 #2 came out at: total luciferase, z-score 0.171; total luciferase, % of control 85.3. Depletion of ASZ1 #3 gave: total luciferase, z-score 0.3; total luciferase, % of control 87.9. For APOBEC3C #1, the values are total luciferase, z-score 0.154; total luciferase, % of control 84.9. Silencing of APOBEC3C #2 came out at: total luciferase, z-score -1.11; total luciferase, % of control 59.8. After knock-down of APOBEC3C #3, the screen gave total luciferase, z-score -0.124; total luciferase, % of control 79.4.

Silencing of RNF208 #1 resulted in: total luciferase, z-score 0.038; total luciferase, % of control 82.6. Knock-down of RNF208 #2 came out at: total luciferase, z-score -1.06; total luciferase, % of control 60.9. After knock-down of RNF208 #3, the screen gave total luciferase, z-score -0.42; total luciferase, % of control 73.5. For SFI1 #1, the entry reads total luciferase, z-score 1.12; total luciferase, % of control 104. Knock-down of SFI1 #2 resulted in: total luciferase, z-score 0.344; total luciferase, % of control 88.7. SFI1 #3 scored total luciferase, z-score -0.174; total luciferase, % of control 78.4.

After knock-down of CHEK2P2 #1, the record shows total luciferase, z-score -1.95; total luciferase, % of control 43.1. With knock-down of CHEK2P2 #2, the screen gave total luciferase, z-score 1.08; total luciferase, % of control 103. Against CHEK2P2 #3, the entry reads total luciferase, z-score -0.388; total luciferase, % of control 74.2. With knock-down of ARK2N #1, the record shows total luciferase, z-score -1.15; total luciferase, % of control 59. With knock-down of ARK2N #2 the results were total luciferase, z-score -0.165; total luciferase, % of control 78.6. After knock-down of ARK2N #3, the screen gave total luciferase, z-score 1.25; total luciferase, % of control 107.
